Patent EP0642343B1, “Acridine carboxamides for the treatment of cancer” (XENOVA LIMITED, priority 1992, dated 1993)

test system: panel of cell lines encompassing a number of tumour types; experiment: NCI cell line panel, growth inhibition by protein staining; type: cell-based; details: standard deviation in log10 units
Procedure: Tumour cell lines were cultured in 96-well plates. Growth of NCI cell lines was assessed using sulpho-rhodamine B staining (Skehan P., et al., J. Natl. Cancer Inst. 1990, 82, 1107-1112), that of the leukaemia lines with (4,5-dimethylthiazole-2-yl)-2,5-diphenyltetrazolium (MTT) staining (Mosmann T., J. Immun. Methods 1983, 65, 55-63) and that of the primary human tumour material by ^3H-thymidine incorporation (Marshall E.S., et al., J. Natl. Cancer Inst. 1992, 84, 341-344). Primary tumour material was cultured in 96-well plates in which the wells were coated with agarose to inhibit selectively the growth of normal cells. (Marshall E.S., et al., J. Natl. Cancer Inst. 1992, 84, 341-344). Primary cultures were incubated at 37°C in sealed perspex boxes containing a humidified atmosphere of 5% CO2 and 5% O2 in nitrogen for 7 days. 5-Methyl-[^3H]-thymidine (20 Ci.mmol^-1; 0.04 µCi per well), thymidine and 5-fluorodeoxyuridine (each at final concentrations of 0.5 µM) were added in medium to cultures (20 µl per well) 24 h before terminating the cultures. Cells were aspirated on to glass fibre filters using a multiple automated sample harvester (LKB Wallac OY Beta Harvester). The filter discs were washed for 15 seconds with water, dried, and the amount of tritium retained quantified by liquid scintillation.
IC50 values were defined as in Paull K.D., et al., J. Natl. Cancer Inst. 1989, 81:1088-1092, where growth, as indicated by staining or thymidine incorporation, corresponded to 50% of that of the control cultures. […] Variances of DELTA values were expressed as standard deviations in log10 units. Comparison of DELTA values was made using Pearson correlation coefficients. Resistance factors were defined as the ratios of IC50 values between the resistant line and the parent line. Statistical evaluation was performed either with NCI programmes, with RS/1 software (BBN Research Systems, Cambridge, MA, USA), or with Sigmaplot (Jandel Scientific, San Rafael, CA, USA).

Row | Structure (SMILES) | variance of DELTA values [units]
1 | CN(C)CCNC(=O)c1cccc2cc3ccccc3nc12 [DACA, N-[2-(dimethylamino)ethyl]acridine-4-carboxamide] | 0.24
2 | COc1cc([C@@H]2c3cc4c(cc3[C@@H](O[C@@H]3O[C@@H]5CO[C@@H](C)O[C@H]5[C@H](O)[C@H]3O)[C@H]3COC(=O)[C@H]23)OCO4)cc(OC)c1O [etoposide] | 0.55
3 | COc1cccc2c1C(=O)c1c(O)c3c(c(O)c1C2=O)C[C@@](O)(C(=O)CO)C[C@@H]3O[C@H]1C[C@H](N)[C@H](O)[C@H](C)O1 [doxorubicin] | 0.44
